The record followed here is PMC4340400.

What all share (experiment): co-IP; double-washed human platelets, resting or activated with 1 unit/ml thrombin; lysis buffer (2x) 40 mM Tris-HCl pH 7.5, 150 mM NaCl, 2 mM EDTA, 2 mM EGTA, 2% Triton X-100, 1% sodium deoxycholate; 2 ug primary antibody or nonspecific IgG overnight at 4 C; Protein A or G beads; Western blot
Test [1] concerns the target SNAP23 (human (endogenous in platelets)) (UniProt O00161).
For test [2], the target named is T1, syntaxin 11 (human (endogenous in platelets)) (UniProt O75558).
T1 sequence: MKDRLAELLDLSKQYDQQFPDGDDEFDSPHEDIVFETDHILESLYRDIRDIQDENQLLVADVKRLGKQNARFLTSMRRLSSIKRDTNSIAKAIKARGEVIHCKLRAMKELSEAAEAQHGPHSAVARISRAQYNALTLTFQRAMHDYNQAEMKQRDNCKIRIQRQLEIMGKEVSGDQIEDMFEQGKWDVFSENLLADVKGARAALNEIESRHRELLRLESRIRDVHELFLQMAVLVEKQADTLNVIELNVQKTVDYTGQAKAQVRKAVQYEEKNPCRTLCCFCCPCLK

In test [3] the target is T2, VAMP8 (human (endogenous in platelets)), Q9BV40.
T2 chain: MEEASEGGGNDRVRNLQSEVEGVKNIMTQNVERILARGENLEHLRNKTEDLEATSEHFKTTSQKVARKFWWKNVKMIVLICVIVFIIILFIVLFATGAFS
Particulars: remark: other sources report otherwise.

No constants are given. Whether binding was seen depends on the method and setting. In cells and extracts the contact can be indirect. Some binding calls cover weakened binding; strength is not graded here.

B1: syntaxin 8 (protein, UniProt Q9UNK0 1-236)
chain: MAPDPWFSTYDSTCQIAQEIAEKIQQRNQYERKGEKAPKLTVTIRALLQNLKEKIALLKDLLLRAVSTHQITQLEGDRRQNLLDDLVTRERLLLASFKNEGAEPDLIRSSLMSEEAKRGAPNPWLFEEPEETRGLGFDEIRQQQQKIIQEQDAGLDALSSIISRQKQMGQEIGNELDEQNEIIDDLANLVENTDEKLRNETRRVNMVDRKSASCGMIMVILLLLVAIVVVAVWPTN
Turning to B1, the binding result in test [1] was “no binding”; in test [2] it was “binds”.

B2: syntaxin 8, Q9UNK0 1-236 (protein)
chain: B1 chain
In the case of B2, the binding entry in test [3] is listed as “no binding”.
